Values joined by “and” are separate entries in the source; they are usually repeats but may differ in a detail not shown here. Equal values may be shown once. Further values from the same series stand in other lists.
Legend:
MAT2A = experiment: BRET probe sensitivity to MAT2A inhibition (Compound A) in live HEK293 cells expressing NLuc-PRMT5; type: cell-based; details: for Normalized BRET probe signal: 37 °C; for normalized BRET signal (Figure S3D): replicates
Method: To measure BRET probe sensitivity to both MAT2A inhibition and exogenous MTA in live cells, HEK293 cells were pre-treated with 30 nM CBH-002 and incubated at 37 °C and 5% CO2 for 2 h. For MAT2A inhibition, a 20 µM, 3-fold, 11 pt titration series of Compound A (Selleckchem) was added to wells. Cells were incubated either at 37 °C (Fig. 3D) or room temperature (Fig. S3D). Data were normalized using Eq. (2), where BRETMIN = instrument background (no CBH-002), and BRETMAX = 2 h vehicle treatment, and fit curves were generated using Eq. (1). For MTA sensitivity cells were treated with a 1 mM, 11 pt, 2-fold series of MTA (Sigma) and cells were incubated at room temperature for 2 h, reading in 15 min intervals. Data were normalized using Eq. (2), where BRETMIN = instrument background (no CBH-002), and BRETMAX = 2 h + vehicle treatment. Data were fit with Eq. (1).

By UniProt entry, the sequences of proteins in these tests, tags left out.
UniProt O14744, whole entry: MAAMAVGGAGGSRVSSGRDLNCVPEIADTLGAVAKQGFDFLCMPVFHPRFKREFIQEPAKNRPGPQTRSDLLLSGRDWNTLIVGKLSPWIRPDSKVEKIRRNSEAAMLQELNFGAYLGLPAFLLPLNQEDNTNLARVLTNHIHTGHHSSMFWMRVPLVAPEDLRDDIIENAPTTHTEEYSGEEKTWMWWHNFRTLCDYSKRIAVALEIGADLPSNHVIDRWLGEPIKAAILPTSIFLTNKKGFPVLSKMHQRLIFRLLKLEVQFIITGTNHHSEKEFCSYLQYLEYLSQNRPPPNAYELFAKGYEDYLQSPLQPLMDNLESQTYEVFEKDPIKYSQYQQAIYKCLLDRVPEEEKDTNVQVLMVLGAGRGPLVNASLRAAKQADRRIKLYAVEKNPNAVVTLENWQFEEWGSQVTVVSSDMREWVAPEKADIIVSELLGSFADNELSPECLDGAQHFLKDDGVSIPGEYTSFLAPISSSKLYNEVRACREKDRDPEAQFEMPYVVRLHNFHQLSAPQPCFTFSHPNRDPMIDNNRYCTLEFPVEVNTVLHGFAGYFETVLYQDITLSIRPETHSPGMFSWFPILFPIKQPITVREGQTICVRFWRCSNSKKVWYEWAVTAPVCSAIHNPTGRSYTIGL

NL-PRMT5 with WDR77 = target: T1, NL-PRMT5 with WDR77 (Homo sapiens, UniProt O14744); experiment: MRTX1719 kinetic washout (residence time) NanoBRET experiment in HEK293 cells; type: cell-based; details: 100uM MTA
T1 construct: host or cells: HEK293
Method: On the next day, cells were resuspended in a 15 mL falcon tube and adjusted to 2 × 10^5 cells/mL in assay medium (OptiMEM with 1% FBS). […] After incubation, cells were centrifuged at 300 × g for 5 min, medium was aspirated and cells were washed with pre-warmed assay medium, centrifuged again and adjusted to 2 × 10^5 cells/mL. For the full occupancy control, MTA and compound concentrations were maintained. 34 μL of cells were added per well in a seeded into 96-well non-binding surface-treated plates (Corning), followed by addition of 36 μL of Complete 2x Substrate (prepared by combining Nano-Glo Substrate and Extracellular NanoLuc Inhibitor in Opti-MEM, according to the manufacturer’s protocol (Promega)). Then, 2 μL of ETP CBH-002 at a final concentration of 30 nM were added before immediate readout at the PheraSTAR FSX for 6 h. Readout and analysis were conducted as described earlier.

Nc1nc(=O)n(-c2ccccc2Cl)c2nc(C(F)(F)F)ccc12 [Compound A]
Normalized BRET probe signal (MAT2A; Log([Compound A]) in uM 0.35, Time (h) 2): 81.29 and 84.17 and 82.16 | Normalized BRET probe signal (MAT2A; Log([Compound A]) in uM 0.35, Time (h) 3): 74.78 and 76.65 and 74.51 | Normalized BRET probe signal (MAT2A; Log([Compound A]) in uM 0.35, Time (h) 4): 62.26 and 62.98 and 64.07 | Normalized BRET probe signal (MAT2A; Log([Compound A]) in uM 0.35, Time (h) 5): 55.01 and 55.85 and 55.75 | Normalized BRET probe signal (MAT2A; Log([Compound A]) in uM 0.35, Time (h) 6): 53.89 and 53.33 and 54.16 | Normalized BRET probe signal (MAT2A; Log([Compound A]) in uM 0.82, Time (h) 3): 77.64 and 77.21 and 75.21 | Normalized BRET probe signal (MAT2A; Log([Compound A]) in uM 0.82, Time (h) 4): 63.28 and 65.60 | normalized BRET signal (Figure S3D) (MAT2A; Log([Compound A]) in uM -0.13, Time 0 min): 101.45 and 102.66 | normalized BRET signal (Figure S3D) (MAT2A; Log([Compound A]) in uM -0.13, Time 15 min): 101.09 and 100.96 and 101.38 | normalized BRET signal (Figure S3D) (MAT2A; Log([Compound A]) in uM -0.13, Time 30 min): 100.65 and 99.76 | normalized BRET signal (Figure S3D) (MAT2A; Log([Compound A]) in uM -0.13, Time 120 min): 95.66 | Normalized BRET probe signal (MAT2A; Log([Compound A]) in uM -0.13, Time (h) 2): 84.10 and 85.04 and 83.56 | Normalized BRET probe signal (MAT2A; Log([Compound A]) in uM -0.13, Time (h) 3): 76.50 and 76.23 and 75.85 | Normalized BRET probe signal (MAT2A; Log([Compound A]) in uM -0.13, Time (h) 4): 62.46 and 64.49 and 63.63 | Normalized BRET probe signal (MAT2A; Log([Compound A]) in uM -0.13, Time (h) 5): 55.18 and 55.73 and 57.18 | Normalized BRET probe signal (MAT2A; Log([Compound A]) in uM -0.13, Time (h) 6): 57.32 and 55.11 and 53.49 | normalized BRET signal (Figure S3D) (MAT2A; Log([Compound A]) in uM -0.61, Time 0 min): 105.72 and 103.08 and 103.32 | normalized BRET signal (Figure S3D) (MAT2A; Log([Compound A]) in uM -0.61, Time 15 min): 103.47 and 102.14 and 101.84 | normalized BRET signal (Figure S3D) (MAT2A; Log([Compound A]) in uM -0.61, Time 30 min): 99.34 and 103.96 and 100.84 | normalized BRET signal (Figure S3D) (MAT2A; Log([Compound A]) in uM -0.61, Time 45 min): 103.18 and 100.13 and 98.02 | normalized BRET signal (Figure S3D) (MAT2A; Log([Compound A]) in uM -0.61, Time 60 min): 102.16 and 99.31 and 97.79 | normalized BRET signal (Figure S3D) (MAT2A; Log([Compound A]) in uM -0.61, Time 75 min): 101.39 and 98.57 and 96.53 | normalized BRET signal (Figure S3D) (MAT2A; Log([Compound A]) in uM -0.61, Time 90 min): 101.80 and 98.52 and 96.46 | normalized BRET signal (Figure S3D) (MAT2A; Log([Compound A]) in uM -0.61, Time 120 min): 97.93 and 98.15 and 95.84 | Normalized BRET probe signal (MAT2A; Log([Compound A]) in uM -0.61, Time (h) 2): 83.51 and 85.74 and 83.64 | Normalized BRET probe signal (MAT2A; Log([Compound A]) in uM -0.61, Time (h) 3): 75.66 and 75.95 and 75.59 | Normalized BRET probe signal (MAT2A; Log([Compound A]) in uM -0.61, Time (h) 4): 61.74 and 61.16 and 63.36 | Normalized BRET probe signal (MAT2A; Log([Compound A]) in uM -0.61, Time (h) 5): 52.63 and 55.79 and 55.84 | Normalized BRET probe signal (MAT2A; Log([Compound A]) in uM -0.61, Time (h) 6): 55.45 and 54.15 and 54.83 | normalized BRET signal (Figure S3D) (MAT2A; Log([Compound A]) in uM -1.08, Time 0 min): 104.70 and 103.08 and 104.82 | normalized BRET signal (Figure S3D) (MAT2A; Log([Compound A]) in uM -1.08, Time 15 min): 102.51 and 102.67 and 102.75 | normalized BRET signal (Figure S3D) (MAT2A; Log([Compound A]) in uM -1.08, Time 30 min): 100.63 and 103.31 and 101.20 | normalized BRET signal (Figure S3D) (MAT2A; Log([Compound A]) in uM -1.08, Time 45 min): 101.42 and 100.39 and 99.23 | normalized BRET signal (Figure S3D) (MAT2A; Log([Compound A]) in uM -1.08, Time 60 min): 100.31 and 99.86 and 98.91 | normalized BRET signal (Figure S3D) (MAT2A; Log([Compound A]) in uM -1.08, Time 75 min): 100.47 and 99.14 and 97.88 | normalized BRET signal (Figure S3D) (MAT2A; Log([Compound A]) in uM -1.08, Time 90 min): 101.18 and 98.37 and 97.60 | normalized BRET signal (Figure S3D) (MAT2A; Log([Compound A]) in uM -1.08, Time 120 min): 99.30 and 97.69 and 96.02 | Normalized BRET probe signal (MAT2A; Log([Compound A]) in uM -1.08, Time (h) 2): 84.67 and 86.82 and 83.90 | Normalized BRET probe signal (MAT2A; Log([Compound A]) in uM -1.08, Time (h) 3): 77.56 and 76.20 and 75.54 | Normalized BRET probe signal (MAT2A; Log([Compound A]) in uM -1.08, Time (h) 4): 61.34 and 62.06 and 62.68 | Normalized BRET probe signal (MAT2A; Log([Compound A]) in uM -1.08, Time (h) 5): 54.74 and 56.09 and 56.58 | Normalized BRET probe signal (MAT2A; Log([Compound A]) in uM -1.08, Time (h) 6): 56.26 and 56.82 and 55.72

CSC[C@H]1O[C@@H](n2cnc3c(N)ncnc32)[C@H](O)[C@@H]1O [MTA, methylthioadenosine]
BRET, Figure S5I (NL-PRMT5 with WDR77; time 72 min): 1.294 and 1.339 and 1.354 and 1.349 | BRET, Figure S5I (NL-PRMT5 with WDR77; time 78 min): 1.386 and 1.366 and 1.432 and 1.342 and 1.317 and 1.352 and 1.361 and 1.362 | BRET, Figure S5I (NL-PRMT5 with WDR77; time 84 min): 1.398 and 1.406 and 1.438 and 1.3737 and 1.326 and 1.358 and 1.387 and 1.39 | BRET, Figure S5I (NL-PRMT5 with WDR77; time 90 min): 1.403 and 1.384 and 1.461 and 1.374 and 1.334 and 1.369 and 1.409 and 1.416 | BRET, Figure S5I (NL-PRMT5 with WDR77; time 96 min): 1.401 (2×) and 1.489 and 1.363 and 1.337 and 1.381 and 1.402 and 1.419 | BRET, Figure S5I (NL-PRMT5 with WDR77; time 120 min): 1.4347 and 1.384 and 1.485 and 1.3745 and 1.37 and 1.3594 and 1.416 and 1.404 | BRET, Figure S5I (NL-PRMT5 with WDR77; time 138 min): 1.435 and 1.4 and 1.464 and 1.387 and 1.367 and 1.363 and 1.415 and 1.419 | BRET, Figure S5I (NL-PRMT5 with WDR77; time 150 min): 1.43 and 1.41 and 1.422 and 1.377 and 1.389 and 1.393 and 1.382 and 1.425 | BRET, Figure S5I (NL-PRMT5 with WDR77; time 168 min): 1.45 and 1.429 and 1.495 and 1.408 and 1.43 and 1.4242 and 1.397 and 1.441 | BRET, Figure S5I (NL-PRMT5 with WDR77; time 180 min): 1.466 and 1.4423 and 1.452 and 1.426 and 1.442 and 1.43 and 1.429 and 1.413 | BRET, Figure S5I (NL-PRMT5 with WDR77; time 210 min): 1.464 and 1.497 and 1.494 and 1.415 and 1.481 and 1.441 and 1.4645 and 1.459 | BRET, Figure S5I (NL-PRMT5 with WDR77; time 240 min): 1.5 and 1.574 and 1.5876 and 1.495 and 1.491 and 1.427 and 1.469 and 1.483 | BRET, Figure S5I (NL-PRMT5 with WDR77; time 270 min): 1.65 and 1.5615 and 1.479 and 1.49 and 1.533 and 1.541 and 1.579 and 1.521 | BRET, Figure S5I (NL-PRMT5 with WDR77; time 300 min): 1.638 and 1.6944 and 1.634 and 1.624 and 1.619 and 1.633 and 1.599 and 1.541 | BRET, Figure S5I (NL-PRMT5 with WDR77; time 330 min): 1.755 and 1.642 and 1.651 and 1.669 and 1.659 and 1.722 and 1.59 and 1.744

— publication PMC12675575, “A BRET biosensor for measuring uncompetitive engagement of PRMT5 complexes in cells” (Nature Communications, 2025)
